# Some of the results follow. Only a few entries rise above the background.
# B1: 4-80.3 (protein)
# chain 1: QVQLQESGPGLVKPSETLSLTCAVSGGSFSSYWWSWIRQPPGKGLEWIGEINGNSGSTNYNPSLKSRVTISKDASKNQFSLKLSSVTAADTAVYYCARYKNVWGRGVLVTVSS
# chain 2: DVVMTQSPLSLPITPGQPASISCRSSQSLVHSNGNTYLSWYQQKPGQPPRRLIYQVSNRDSGVPDRFSGSGAGTDFTLKISRVEAEDVGVYYCGQGTNVPTFGQGTKVEIK
# Legend:
# Experiment in all cases: fluorescence intensity of antibody binding to polysaccharide-coupled beads; higher = stronger binding
# [1] = biological target: pneumococcal polysaccharide Pn33B
# [2] = biological target: pneumococcal polysaccharide Pn33C
# [3] = biological target: pneumococcal polysaccharide Pn33D
# [4] = biological target: pneumococcal polysaccharide Pn33F
# [5] = biological target: pneumococcal polysaccharide Pn34
# [6] = biological target: pneumococcal polysaccharide Pn35A
# [7] = biological target: pneumococcal polysaccharide Pn35B
# [8] = biological target: pneumococcal polysaccharide Pn35C
# [9] = biological target: pneumococcal polysaccharide Pn35F
# [10] = biological target: pneumococcal polysaccharide Pn36
# [11] = biological target: pneumococcal polysaccharide Pn37
# [12] = biological target: pneumococcal polysaccharide Pn38
# [13] = biological target: pneumococcal polysaccharide Pn39
# [14] = biological target: pneumococcal polysaccharide Pn4
# [15] = biological target: pneumococcal polysaccharide Pn40
# [16] = biological target: pneumococcal polysaccharide Pn41A
# [17] = biological target: pneumococcal polysaccharide Pn41F
# [18] = biological target: pneumococcal polysaccharide Pn42
# [19] = biological target: pneumococcal polysaccharide Pn43
# [20] = biological target: pneumococcal polysaccharide Pn44
# [21] = biological target: pneumococcal polysaccharide Pn45
# [22] = biological target: pneumococcal polysaccharide Pn46
# [23] = biological target: pneumococcal polysaccharide Pn47A
# [24] = antibody concentration 2.8593 ng/mL
# [25] = antibody concentration 15.2894 ng/mL
# [26] = antibody concentration 81.7561 ng/mL
# [27] = antibody concentration 437.17 ng/mL
# [28] = antibody concentration 2337.65 ng/mL
# [29] = antibody concentration 12500 ng/mL
# [30] = antibody concentration 0.1 ng/mL
# [31] = antibody concentration 0.534724 ng/mL
binder,measurement,setting,value
B1,fluorescence intensity,[1]; [24],18.8 MFI
same,fluorescence intensity,[1]; [25],18 MFI
same,fluorescence intensity,[1]; [26],17 MFI
same,fluorescence intensity,[1]; [27],18 MFI
same,fluorescence intensity,[1]; [28],19.5 MFI
same,fluorescence intensity,[1]; [29],32.8 MFI
same,fluorescence intensity,[2]; [30],18.8 MFI
same,fluorescence intensity,[2]; [31],19.8 MFI
same,fluorescence intensity,[2]; [24],20.2 MFI
same,fluorescence intensity,[2]; [25],18.2 MFI
same,fluorescence intensity,[2]; [26],20.5 MFI
same,fluorescence intensity,[2]; [27],21 MFI
same,fluorescence intensity,[2]; [28],35.5 MFI
same,fluorescence intensity,[2]; [29],168 MFI
same,fluorescence intensity,[3]; [30],16.5 MFI
same,fluorescence intensity,[3]; [31],17 MFI
same,fluorescence intensity,[3]; [24],15.2 MFI
same,fluorescence intensity,[3]; [25],16.5 MFI
same,fluorescence intensity,[3]; [26],16 MFI
same,fluorescence intensity,[3]; [27],16.5 MFI
same,fluorescence intensity,[3]; [28],20.2 MFI
same,fluorescence intensity,[3]; [29],54.2 MFI
same,fluorescence intensity,[4]; [30],13.5 MFI
same,fluorescence intensity,[4]; [31],12 MFI
same,fluorescence intensity,[4]; [24],14 MFI
same,fluorescence intensity,[4]; [25],14 MFI
same,fluorescence intensity,[4]; [26],14 MFI
same,fluorescence intensity,[4]; [27],29.8 MFI
same,fluorescence intensity,[4]; [28],124 MFI
same,fluorescence intensity,[4]; [29],818 MFI
same,fluorescence intensity,[5]; [30],12 MFI
same,fluorescence intensity,[5]; [31],14.8 MFI
same,fluorescence intensity,[5]; [24],14.5 MFI
same,fluorescence intensity,[5]; [25],13.8 MFI
same,fluorescence intensity,[5]; [26],13.8 MFI
same,fluorescence intensity,[5]; [27],13.8 MFI
same,fluorescence intensity,[5]; [28],20.5 MFI
same,fluorescence intensity,[5]; [29],46 MFI
same,fluorescence intensity,[6]; [30],19.5 MFI
same,fluorescence intensity,[6]; [31],17 MFI
same,fluorescence intensity,[6]; [24],16 MFI
same,fluorescence intensity,[6]; [25],16.2 MFI
same,fluorescence intensity,[6]; [26],16.5 MFI
same,fluorescence intensity,[6]; [27],19 MFI
same,fluorescence intensity,[6]; [28],50 MFI
same,fluorescence intensity,[6]; [29],364 MFI
same,fluorescence intensity,[7]; [30],19 MFI
same,fluorescence intensity,[7]; [31],18.2 MFI
same,fluorescence intensity,[7]; [24],18 MFI
same,fluorescence intensity,[7]; [25],18 MFI
same,fluorescence intensity,[7]; [26],18 MFI
same,fluorescence intensity,[7]; [27],19 MFI
same,fluorescence intensity,[7]; [28],39.5 MFI
same,fluorescence intensity,[7]; [29],204 MFI
same,fluorescence intensity,[8]; [30],19.5 MFI
same,fluorescence intensity,[8]; [31],21.5 MFI
same,fluorescence intensity,[8]; [24],19.5 MFI
same,fluorescence intensity,[8]; [25],19.5 MFI
same,fluorescence intensity,[8]; [26],20 MFI
same,fluorescence intensity,[8]; [27],20.2 MFI
same,fluorescence intensity,[8]; [28],22 MFI
same,fluorescence intensity,[8]; [29],35.2 MFI
same,fluorescence intensity,[9]; [30],18.2 MFI
same,fluorescence intensity,[9]; [31],20 MFI
same,fluorescence intensity,[9]; [24],17.5 MFI
same,fluorescence intensity,[9]; [25],17 MFI
same,fluorescence intensity,[9]; [26],19.8 MFI
same,fluorescence intensity,[9]; [27],22.2 MFI
same,fluorescence intensity,[9]; [28],23.5 MFI
same,fluorescence intensity,[9]; [29],37.5 MFI
same,fluorescence intensity,[10]; [30],15.8 MFI
same,fluorescence intensity,[10]; [31],17 MFI
same,fluorescence intensity,[10]; [24],16.5 MFI
same,fluorescence intensity,[10]; [25],15.5 MFI
same,fluorescence intensity,[10]; [26],17 MFI
same,fluorescence intensity,[10]; [27],24.5 MFI
same,fluorescence intensity,[10]; [28],75.8 MFI
same,fluorescence intensity,[10]; [29],492 MFI
same,fluorescence intensity,[11]; [30],24.5 MFI
same,fluorescence intensity,[11]; [31],26 MFI
same,fluorescence intensity,[11]; [24],27 MFI
same,fluorescence intensity,[11]; [25],26.2 MFI
same,fluorescence intensity,[11]; [26],29.5 MFI
same,fluorescence intensity,[11]; [27],58 MFI
same,fluorescence intensity,[11]; [28],282 MFI
same,fluorescence intensity,[11]; [29],1350 MFI
same,fluorescence intensity,[12]; [30],26.2 MFI
same,fluorescence intensity,[12]; [31],24.5 MFI
same,fluorescence intensity,[12]; [24],26.5 MFI
same,fluorescence intensity,[12]; [25],26 MFI
same,fluorescence intensity,[12]; [26],26 MFI
same,fluorescence intensity,[12]; [27],29 MFI
same,fluorescence intensity,[12]; [28],33.2 MFI
same,fluorescence intensity,[12]; [29],75.5 MFI
same,fluorescence intensity,[13]; [30],19 MFI
same,fluorescence intensity,[13]; [31],18.8 MFI
same,fluorescence intensity,[13]; [24],17.2 MFI
same,fluorescence intensity,[13]; [25],16.5 MFI
same,fluorescence intensity,[13]; [26],18 MFI
same,fluorescence intensity,[13]; [27],17.5 MFI
same,fluorescence intensity,[13]; [28],38 MFI
same,fluorescence intensity,[13]; [29],216 MFI
same,fluorescence intensity,[14]; [30],17.5 MFI
same,fluorescence intensity,[14]; [31],18 MFI
same,fluorescence intensity,[14]; [24],18 MFI
same,fluorescence intensity,[14]; [25],18.5 MFI
same,fluorescence intensity,[14]; [26],20 MFI
same,fluorescence intensity,[14]; [27],24.5 MFI
same,fluorescence intensity,[14]; [28],37.2 MFI
same,fluorescence intensity,[14]; [29],108 MFI
same,fluorescence intensity,[15]; [30],16.5 MFI
same,fluorescence intensity,[15]; [31],15 MFI
same,fluorescence intensity,[15]; [24],17 MFI
same,fluorescence intensity,[15]; [25],16.8 MFI
same,fluorescence intensity,[15]; [26],17.5 MFI
same,fluorescence intensity,[15]; [27],28.5 MFI
same,fluorescence intensity,[15]; [28],96.5 MFI
same,fluorescence intensity,[15]; [29],617 MFI
same,fluorescence intensity,[16]; [30],23.2 MFI
same,fluorescence intensity,[16]; [31],23.5 MFI
same,fluorescence intensity,[16]; [24],23 MFI
same,fluorescence intensity,[16]; [25],23 MFI
same,fluorescence intensity,[16]; [26],25.5 MFI
same,fluorescence intensity,[16]; [27],27 MFI
same,fluorescence intensity,[16]; [28],29.5 MFI
same,fluorescence intensity,[16]; [29],47.2 MFI
same,fluorescence intensity,[17]; [30],11.5 MFI
same,fluorescence intensity,[17]; [31],13.5 MFI
same,fluorescence intensity,[17]; [24],13 MFI
same,fluorescence intensity,[17]; [25],12.5 MFI
same,fluorescence intensity,[17]; [26],12 MFI
same,fluorescence intensity,[17]; [27],14.2 MFI
same,fluorescence intensity,[17]; [28],20.8 MFI
same,fluorescence intensity,[17]; [29],61 MFI
same,fluorescence intensity,[18]; [30],11.5 MFI
same,fluorescence intensity,[18]; [31],12 MFI
same,fluorescence intensity,[18]; [24],12 MFI
same,fluorescence intensity,[18]; [25],12.5 MFI
same,fluorescence intensity,[18]; [26],13.5 MFI
same,fluorescence intensity,[18]; [27],17 MFI
same,fluorescence intensity,[18]; [28],38 MFI
same,fluorescence intensity,[18]; [29],217 MFI
same,fluorescence intensity,[19]; [30],15 MFI
same,fluorescence intensity,[19]; [31],14.5 MFI
same,fluorescence intensity,[19]; [24],16 MFI
same,fluorescence intensity,[19]; [25],17.2 MFI
same,fluorescence intensity,[19]; [26],16.5 MFI
same,fluorescence intensity,[19]; [27],32.5 MFI
same,fluorescence intensity,[19]; [28],160 MFI
same,fluorescence intensity,[19]; [29],1050 MFI
same,fluorescence intensity,[20]; [30],24.5 MFI
same,fluorescence intensity,[20]; [31],26 MFI
same,fluorescence intensity,[20]; [24],24.5 MFI
same,fluorescence intensity,[20]; [25],25.5 MFI
same,fluorescence intensity,[20]; [26],26.2 MFI
same,fluorescence intensity,[20]; [27],27.5 MFI
same,fluorescence intensity,[20]; [28],33.5 MFI
same,fluorescence intensity,[20]; [29],64.8 MFI
same,fluorescence intensity,[21]; [30],11 MFI
same,fluorescence intensity,[21]; [31],10 MFI
same,fluorescence intensity,[21]; [24],10.8 MFI
same,fluorescence intensity,[21]; [25],9.75 MFI
same,fluorescence intensity,[21]; [26],10.5 MFI
same,fluorescence intensity,[21]; [27],12.2 MFI
same,fluorescence intensity,[21]; [28],16.5 MFI
same,fluorescence intensity,[21]; [29],37 MFI
same,fluorescence intensity,[22]; [30],22 MFI
same,fluorescence intensity,[22]; [31],24.8 MFI
same,fluorescence intensity,[22]; [24],24 MFI
same,fluorescence intensity,[22]; [25],25 MFI
same,fluorescence intensity,[22]; [26],26 MFI
same,fluorescence intensity,[22]; [27],31 MFI
same,fluorescence intensity,[22]; [28],71.8 MFI
same,fluorescence intensity,[22]; [29],372 MFI
same,fluorescence intensity,[23]; [30],16.5 MFI
same,fluorescence intensity,[23]; [31],16.5 MFI
same,fluorescence intensity,[23]; [24],14.2 MFI
same,fluorescence intensity,[23]; [25],15.5 MFI
same,fluorescence intensity,[23]; [26],15.5 MFI
same,fluorescence intensity,[23]; [27],17.2 MFI

# Another view of part of the listing above:
binder	measurement	setting	value
B1	fluorescence intensity	[2]; [30]	18.8 MFI
same	fluorescence intensity	[6]; [25]	16.2 MFI
same	fluorescence intensity	[16]; [26]	25.5 MFI

# As a working copy, part of the list above.
binder,measurement,setting,value
B1,fluorescence intensity,[11]; [27],58 MFI
same,fluorescence intensity,[11]; [28],282 MFI
same,fluorescence intensity,[11]; [29],1350 MFI
same,fluorescence intensity,[12]; [30],26.2 MFI
same,fluorescence intensity,[12]; [31],24.5 MFI

# — the supplement of paper PMC11438910
